The results in this text go back to article doi:10.1101/541656.

Protein sequences, listed by entry. Tags and fused reporters are not part of them. Lines headed by an entry give the natural chain unless they say otherwise; changes in a name come on top.
UniProt P43487: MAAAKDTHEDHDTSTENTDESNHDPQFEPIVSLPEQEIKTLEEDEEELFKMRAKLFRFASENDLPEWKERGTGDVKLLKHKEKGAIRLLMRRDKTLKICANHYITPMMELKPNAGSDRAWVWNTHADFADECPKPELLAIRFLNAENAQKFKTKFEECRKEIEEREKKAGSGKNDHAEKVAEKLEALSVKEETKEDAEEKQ
UniProt P18754: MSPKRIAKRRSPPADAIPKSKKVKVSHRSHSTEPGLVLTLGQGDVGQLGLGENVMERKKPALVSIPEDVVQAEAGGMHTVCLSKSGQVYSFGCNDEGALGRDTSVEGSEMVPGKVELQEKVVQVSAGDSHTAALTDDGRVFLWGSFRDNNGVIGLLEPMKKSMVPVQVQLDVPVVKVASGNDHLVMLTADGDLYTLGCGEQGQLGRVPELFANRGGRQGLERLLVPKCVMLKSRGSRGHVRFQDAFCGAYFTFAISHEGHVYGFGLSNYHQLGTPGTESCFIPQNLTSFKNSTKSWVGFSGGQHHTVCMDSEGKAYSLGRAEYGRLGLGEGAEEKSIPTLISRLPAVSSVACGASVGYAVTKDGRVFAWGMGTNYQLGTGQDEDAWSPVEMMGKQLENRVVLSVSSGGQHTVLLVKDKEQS

Test [1] concerns the target RAN Binding Protein 1 (RANBP1) WT, 3xFLAG tagged (human) (UniProt P43487). Briefly: affinity purification with mass spectrometry.
Test [2] has as its target RANBP1 S60E mutant, 3xFLAG tagged (human) (UniProt P43487). Briefly: affinity purification with mass spectrometry.

No constants are given. Whether binding was seen depends on the method and setting. In cells and extracts the contact can be indirect. Here binding means that the protein was enriched with, or labelled near, the bait; the list need not be complete.

Consider RCC1 (from UniProt P18754 1-421), for which the binding result in test [1] and in test [2] was “binds” each time.

B1: NEMP1 (protein, UniProt O14524 44-444)
chain: ETDVNVVMLQESQVCEKRASQQFCYTNVLIPKWHDIWTRIQIRVNSSRLVRVTQVENEEKLKELEQFSIWNFFSSFLKEKLNDTYVNVGLYSTKTCLKVEIIEKDTKYSVIVIRRFDPKLFLVFLLGLMLFFCGDLLSRSQIFYYSTGMTVGIVASLLIIIFILSKFMPKKSPIYVILVGGWSFSLYLIQLVFKNLQEIWRCYWQYLLSYVLTVGFMSFAVCYKYGPLENERSINLLTWTLQLMGLCFMYSGIQIPHIALAIIIIALCTKNLEHPIQWLYITCRKVCKGAEKPVPPRLLTEEEYRIQGEVETRKALEELREFCNSPDCSAWKTVSRIQSPKRFADFVEGSSHLTPNEVSVHEQEYGLGSIIAQDEIYEEASSEEEDSYSRCPAITQNNFLT
B1: the binding result in test [1] and in test [2] was “binds” in each case.
